Measurements taken from paper PMC8018997.
Residue numbers refer to the chain shown, from its start. No constants are given. Whether binding was seen depends on the method and setting. In cells and extracts the contact can be indirect. Some results given as binding are weak or reduced against the parent protein; the word gives no strength. Tags and fused reporters may be left off the sequences shown.

By UniProt entry, the sequences of proteins in these tests, tags left out.
UniProt O15379: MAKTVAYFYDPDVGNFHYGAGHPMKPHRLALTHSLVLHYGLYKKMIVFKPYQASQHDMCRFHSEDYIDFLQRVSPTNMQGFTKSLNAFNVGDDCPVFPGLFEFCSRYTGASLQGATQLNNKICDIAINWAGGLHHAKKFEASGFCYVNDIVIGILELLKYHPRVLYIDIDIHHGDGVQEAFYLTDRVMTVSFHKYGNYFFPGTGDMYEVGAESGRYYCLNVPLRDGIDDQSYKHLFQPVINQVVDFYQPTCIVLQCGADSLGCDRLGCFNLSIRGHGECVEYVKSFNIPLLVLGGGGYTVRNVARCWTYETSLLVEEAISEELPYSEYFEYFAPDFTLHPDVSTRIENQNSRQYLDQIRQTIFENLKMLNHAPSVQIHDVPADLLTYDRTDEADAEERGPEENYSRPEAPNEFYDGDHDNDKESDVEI
UniProt Q14653: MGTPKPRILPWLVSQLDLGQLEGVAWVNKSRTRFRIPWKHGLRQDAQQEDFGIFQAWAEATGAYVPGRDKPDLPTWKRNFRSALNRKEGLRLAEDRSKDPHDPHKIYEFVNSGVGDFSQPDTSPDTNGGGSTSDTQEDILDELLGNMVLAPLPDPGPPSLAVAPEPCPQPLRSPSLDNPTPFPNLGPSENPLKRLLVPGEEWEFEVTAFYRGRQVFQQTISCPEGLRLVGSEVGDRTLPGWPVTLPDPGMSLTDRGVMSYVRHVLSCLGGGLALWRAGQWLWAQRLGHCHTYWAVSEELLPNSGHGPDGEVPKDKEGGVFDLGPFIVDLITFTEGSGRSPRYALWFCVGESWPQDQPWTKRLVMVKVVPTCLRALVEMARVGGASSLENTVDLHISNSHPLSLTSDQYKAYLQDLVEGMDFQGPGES

How the values were obtained:
Test in all cases: co-IP
[1] = molecular target: T1, EGFP-tagged wild-type TBK1 (UniProt Q9UHD2)
T1 sequence: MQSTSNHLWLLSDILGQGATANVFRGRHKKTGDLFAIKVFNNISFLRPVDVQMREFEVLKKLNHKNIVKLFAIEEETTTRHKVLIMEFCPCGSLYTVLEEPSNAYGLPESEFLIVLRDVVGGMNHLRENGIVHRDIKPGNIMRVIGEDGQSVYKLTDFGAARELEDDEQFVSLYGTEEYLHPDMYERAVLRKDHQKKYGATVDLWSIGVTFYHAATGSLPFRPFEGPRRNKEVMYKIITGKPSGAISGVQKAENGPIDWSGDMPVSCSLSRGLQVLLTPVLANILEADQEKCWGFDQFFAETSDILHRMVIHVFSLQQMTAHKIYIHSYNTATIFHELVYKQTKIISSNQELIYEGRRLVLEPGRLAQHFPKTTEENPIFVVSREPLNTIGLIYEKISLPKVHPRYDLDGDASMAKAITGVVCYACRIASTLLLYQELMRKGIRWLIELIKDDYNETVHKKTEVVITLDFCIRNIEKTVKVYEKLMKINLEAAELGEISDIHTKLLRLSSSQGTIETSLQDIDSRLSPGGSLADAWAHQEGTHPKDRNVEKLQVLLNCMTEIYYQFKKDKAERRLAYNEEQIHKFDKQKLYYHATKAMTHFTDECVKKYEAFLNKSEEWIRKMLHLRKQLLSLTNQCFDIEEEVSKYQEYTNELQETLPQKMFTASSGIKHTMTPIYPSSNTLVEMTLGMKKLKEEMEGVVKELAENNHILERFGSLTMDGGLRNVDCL

[2] = molecular target: T2, Flag-tagged TBK1 K241Q (UniProt Q9UHD2)
T2 sequence: T1 sequence with K241Q

[3] = molecular target: T3, Flag-tagged TBK1 K692Q (UniProt Q9UHD2)
T3 sequence: T1 sequence with K692Q

[4] = molecular target: T4, Flag-tagged TBK1 K692R (UniProt Q9UHD2)
T4 sequence: T1 sequence with K692R

[5] = molecular target: T5, Flag-tagged wild-type TBK1 (UniProt Q9UHD2)
T5 sequence: T1 sequence

binding [1] | binding [2] | binding [3] | binding [4] | binding [5] | Substance
binds |  |  |  |  | HA-tagged HDAC3 (from UniProt O15379 1-428) (enzyme)
 | binds | binds | binds | binds | HA-tagged IRF3 (interferon regulatory factor 3) (from UniProt Q14653 1-427)
 | binds | binds |  |  | Myc-tagged HDAC3 (from UniProt O15379 1-428) (enzyme)
